# In article PMC12411612:
# Key:
# [1] = tested on: Myocardin (endogenous, T/G HA-VSMC nuclear extract) + Serum response factor (endogenous, T/G HA-VSMC nuclear extract); test: EMSA; conditions: nuclear extract preincubated with active DNA/NAD+; EMSA: 20 ug nuclear extract, 50 fM biotin probe, 10 mM Tris pH 7.6, 50 mM KCl, 5 mM MgCl2, 1 mM EDTA, 2.5% glycerol, 0.05% NP-40, 50 ng poly(dI-dC), 30 min; protein in an extract; label: 5' biotin
# [2] = tested on: Myocardin (Flag-tagged, adenovirus-expressed in T/G HA-VSMC nuclear extract) + Serum response factor (endogenous, T/G HA-VSMC nuclear extract); test: EMSA; conditions: EMSA: 20 ug nuclear extract, 50 fM biotin probe, 10 mM Tris pH 7.6, 50 mM KCl, 5 mM MgCl2, 1 mM EDTA, 2.5% glycerol, 0.05% NP-40, 50 ng poly(dI-dC), 30 min, protein in an extract, protein details: Flag, label: 5' biotin
sequence,measurement,setting,value
GAGGTCCCTATATGGTTGTG (double strand) [αSMA-CArG probe],binding result,[1],binds more weakly
same,binding result,"[2]; nuclear extract preincubated with active DNA and NAD+ (10-200 uM), poly(ADP-ribosyl)ated myocardin/SRF",binds more weakly
same,binding result,"[2]; nuclear extract with active DNA, no NAD+ (0 uM)",binds

# Construct, isoform or probe ends are uncertain for at least one entry. At least one result comes from cells or an extract, where the contact may be indirect. Weaker means in comparison with the reference protein, sequence or condition of that experiment. For part of these data: At least one verdict was read from the data and is not stated in words by the source.
